Laboratory results as given in article PMC10163288.
This is one part of the list.

B1: il2ra_site2_2erj_sap_23_mot_HHH_b1_04373_af2_000000118_0001_18_33_H_._HHH_b2_06074_0001_0000600022_0000001_0_0001 (protein)
chain: SSSSNEELHELYRLAEELIRARANGDEELVEKLIEEIERLAEKLQSDTTREMLEELKKQFSSSSS
B2: il2ra_site2_2erj_sap_24_mot_7b433bbe769c568a642d6e21c81e970f_0001_000000142_0001_36_50_H_._d0e8961964c3861271c3cee42b2d364a_0001_1_0001_0000500013_0000001_0_000 … (protein)
chain: SSSSSDEERLEEFVEELVEEFGLSEEQKEELEEAVKIALEAGASEEAIRLFLENRAREEGSSSSS
B3: il2ra_site1_3nfp_sap_9_mot_3e7f9dc7757c9be4a21a7eaad61dbf0f_0001_1_af2_000000290_0001_16_30_H_._095aa0115aa001b1004419c4ef159b4a_0001_0001_0000700037_0000001_0_ … (protein)
chain: SSSSSDRLREFQRLAKEALKIEDREELEEVLEELEKIAEERNDPIAKELVERLRRKAEELSSSSS
B4: il2ra_site1_2b5i_sap_9_mot_HHH_b1_06833_000000178_0001_1_19_H_._69c0e03702be80a53d24f68cf15becc8_0001_0001_0000100006_0000001_0_0001_af2pred_dldesign_0_af2pred (protein)
chain: SSSSSDEEVIARAKALAEEALKKATSPKDKKIVEWGLEELDETKDPQVARQLLDFVERLLKSSSS
B5: il2ra_site1_2b5i_sap_13_mot_HHH_b1_00983_000000007_0001_1_17_H_._HHH_b1_06195_0001_0000800024_0000001_0_0001 (protein)
chain: SSSSNRAREILFEAARESVEEAEEEGDEETLEKLYEEIRRYLELHGSELLKELLEHIEKLLSSSS
B6: il2ra_site2_3nfp_normal_mot_HHH_b2_05976_000000001_0001_22_38_H_._HHH_b2_06641_0001_0000100007_0000001_1 (protein)
chain: SSSSDVEERVEELLQEAERLLEEGNPEEARKLVREAALLAAEARDHELFALVQEVLHKIVNSSSS
B7: il2ra_site1_2b5i_sap_13_mot_143f78fc0439b137266e145e81963a82_0001_1_af2_000000250_0001_37_51_H_._0e4f66a3c4b070984708d3e1d5382b02_0001_1_af2_0001_0000200006_000 … (protein)
chain: SSSSAREEVERLIKEAKELLEQGKLREALKKLEEALKVAAAAEDEELYEEVEKLAEEALKSSSSS
B8: il2ra_site1_3nfp_sap_9_mot_HHH_b1_01335_af2_000000258_0001_39_53_H_._HHH_b2_03358_0001_0000500034_0000001_0_0001 (protein)
chain: SSSSNEAMRLVQEALRLARRHDDHEASQELYRLIHEALRKGDPELLREARELAEEIIEELGSSSS
B9: il2ra_site1_3nfp_normal_mot_HHH_b2_03857_af2_000000084_0001_42_56_H_._HHH_b2_02902_0001_0000400015_0000001_0_af2pred_0001_af2pred (protein)
chain: SSSSSREEAEEVIKLLRLLEKLLIEGDEEKVEEVREELEKLIKELNSRSAELYLRLLEERHSSSS
B10: il2ra_site2_2erj_normal_mot_HHH_b1_08609_af2_000000264_0001_43_56_H_._HHH_b2_06230_af2_0001_0000200028_0000001_0 (protein)
chain: SSSSNEELKEIFKLADALLEAIQNNDEELFEKIYEEAEKLIEESNTENAEEILRWLERHFNSSSS
B11: il2ra_site1_1z92_sap_11_mot_HHH_b2_00249_af2_000000052_0001_39_52_H_._HHH_b2_00616_af2_0001_0000400013_0000001_1_0001_af2pred_0001_af2pred (protein)
chain: SSSSSEKRKEALELFEEANELFKRGNDEEAQELLRRALELAEEAGNRVLARAIEQALEDAESSSS
B12: il2ra_site2_2erj_sap_25_mot_HHH_b1_00821_000000158_0001_1_20_H_._HHH_b2_03062_af2_0001_0000100003_0000001_0_0001 (protein)
chain: SSSSNEELRELYRLLVEALRLLTEGNPEKAEEVLREAEELAERLGSDNAKEAIEQLKKLVRSSSS
B13: il2ra_site1_3nfp_sap_10_mot_922575b2e9738a49cb663a995786872c_0001_af2_000000130_0001_1_15_H_._HHH_b1_08594_0001_0000300023_0000001_0_0001_af2pred_0001_af2pred (protein)
chain: SSSSDILREIIKLEKELREALKNENEEKARELLEELRRLIEEANDPVARRILEIAQKKVEKSSSS
B14: il2ra_site2_3nfp_normal_mot_HHH_b1_04997_af2_000000181_0001_40_57_H_._HHH_b1_02356_0001_0000700006_0000001_0 (protein)
chain: SSSSSSDEESFEYAKAAAILAGDEELLKEVEELEERYRQEGDPEYQRLVARLALEIAFSSSSSSS
B15: il2ra_site2_3nfp_sap_25_mot_ems_3hM_287_af2_000000177_0001_46_64_H_._HHH_b1_07095_0001_0000400043_0000001_0_0001 (protein)
chain: SSSSDEAREEVEKLVEQAEELLKRGNPEEARKALAEAAHIAFENNDFEAFAAVAELLNEILSSSS
B16: il2ra_site1_1z92_normal_mot_HHH_b1_05003_000000111_0001_1_20_H_._HHH_b2_04319_af2_0001_0000300020_0000001_0_af2pred_dldesign_0_af2pred (protein)
chain: SSSSPRQELYQLLLELNKALQAGNKEEFEKLLKKATELAEKLESKVVLKLLEKAKEQLEEESSSS
B17: il2ra_site1_3nfp_normal_mot_HHH_b1_04560_000000028_0001_23_40_H_._HHH_b2_04432_0001_0000500008_0000001_1 (protein)
chain: SSSSSDLEAAQEAYKLLREALKISDEEEVEELLRRALELLEEAGDERNLKSLHKAVEHFNSSSSS
B18: il2ra_site2_3nfp_normal_mot_HHH_b1_05627_af2_000000038_0001_43_56_H_._HHH_b2_07596_0001_0000200026_0000001_0 (protein)
chain: SSSSSKQEEYLRAALEVLREAFEFGDRESFEKQAEAARELAEALNDPEVLEEVEELLRELSSSSS
B19: il2ra_site2_3nfp_normal_mot_HHH_b1_04338_af2_000000107_0001_41_56_H_._HHH_b2_06761_0001_0000400039_0000001_0 (protein)
chain: SSSDESEEIFERAEKELRRLLEEGNREEASQLTFEAAHELKELGDDRLVLKLYAILQRALFSSSS

molecular target: il2ra, P01589; experiment: yeast display titration

Apparent Kd, inactive:
B1 no binding seen
B2 > 555 nM
B3 no binding seen
B4 no binding seen
B5 no binding seen
B6 no binding seen
B7 no binding seen
B8 no binding seen
B9 no binding seen
B10 no binding seen
B11 no binding seen
B12 no binding seen
B13 no binding seen
B14 no binding seen
B15 no binding seen
B16 no binding seen
B17 no binding seen
B18 no binding seen
B19 no binding seen

Nothing new here: an excerpt of the list.
Apparent Kd, inactive:
B4 no binding seen
B5 no binding seen
B6 no binding seen
B7 no binding seen
B8 no binding seen
